PubChem BioAssay AID504791, Drosophila RNAi Screening Center | 2011

- Purpose: 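Genes whose knock-down strengthens or weakens small-RNA reporter silencing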 (primary screen)
- System: Drosophila S2-derived reporter cells
- Knock-down reagent: long dsRNA against Drosophila genes, about 150-250 ng dsRNA per well (siRNA assay); about 80-120 ng (miRNA assay)
- Time to read-out: about 5 days (siRNA assay); about 4 days (miRNA assay)
- Challenge: copper sulfate induction of reporters: 25 µM (siRNA assay); 200 mM stated (miRNA assay), 1-2 days before reading
- Measured: 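Dual luciferase assay: Renilla to firefly signal ratio in each well, scaled to the mean ratio of its plate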
- Hit rule: 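First-pass picks had plate-scaled ratios over 1.5 for the siRNA assay, over 1.6 for the miRNA assay, or under 0.6; two distinct dsRNAs had to score alike on retest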
The deposit covers about 23,000 reagents; this is a random part of those that have a named target and a result. Over the whole deposit, 199 (0.86%) are marked active. 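Plate-scaled ratios behind the calls are not deposited; printed light signals are raw; many rows marked increased or decreased are still called inactive.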 The numbers tell different reagents against one gene apart. Not given: the direction of the score.

| Target gene | dsRNA no. | stable siRNA reporter change | miRNA reporter change | stable assay Renilla, run 1 (luminescence) | stable assay firefly, run 1 (luminescence) | call |
| --- | --- | --- | --- | --- | --- | --- |
| Acsf2 | 1 | – | – | 9827 | 4.77e5 | inactive |
| CG32719 | 1 | – | – | 5024 | 3.48e5 | inactive |
| ninaA | 1 | – | – | 48970 | 1.70e5 | inactive |
| AMPKalpha | 1 | – | – | 9703 | 4.29e5 | inactive |
| AMPKalpha | 2 | – | reporter ratio raised past the hit cutoff | – | – | active |
| rhi | 1 | – | – | 6084 | 2.60e5 | inactive |
| Tsp42En | 1 | – | – | 7086 | 4.59e5 | inactive |
| CG10973 | 1 | – | – | 8164 | 3.52e5 | inactive |
| CycD | 1 | – | – | 3631 | 3.42e5 | inactive |
| CG14424 | 1 | – | – | 5607 | 3.38e5 | inactive |
| CG9986 | 1 | – | – | 7898 | 5.10e5 | inactive |
| CG9467 | 1 | – | – | 8508 | 4.10e5 | inactive |
| asp | 1 | – | – | 10514 | 3.98e5 | inactive |
| NPF | 1 | – | – | 6744 | 4.74e5 | inactive |
| L (retired record) | 1 | – | – | 5803 | 3.44e5 | inactive |
| L (retired record) | 2 | – | – | 4423 | 1.76e5 | inactive |
| CG17329 | 1 | – | – | 7562 | 3.43e5 | inactive |
| Nplp4 | 1 | reporter ratio lowered past the hit cutoff | – | 7359 | 6.75e5 | inactive |
| Kap-alpha1 | 1 | – | – | 6456 | 3.50e5 | inactive |
| CG4592 | 1 | – | – | 11010 | 1.23e6 | inactive |
| Hexo2 | 1 | – | – | 5479 | 3.60e5 | inactive |
| CG10073 | 1 | – | – | 5327 | 3.06e5 | inactive |
| CG4041 | 1 | – | – | 5480 | 2.93e5 | inactive |
| CG8768 | 1 | – | – | 7159 | 3.40e5 | inactive |
| drpr | 1 | – | – | 6203 | 3.68e5 | inactive |
| drpr | 2 | – | – | 5780 | 3.40e5 | inactive |
| scramb2 | 1 | – | – | 6410 | 3.33e5 | inactive |
| COX8 | 1 | – | – | 6031 | 3.79e5 | inactive |
| CG6923 | 1 | – | – | 7914 | 4.10e5 | inactive |
| CG32204 | 1 | – | – | 4507 | 4.05e5 | inactive |
| comt | 1 | – | – | 4928 | 3.94e5 | inactive |
| rswl | 1 | – | – | 8003 | 3.02e5 | inactive |
| IntS9 | 1 | – | – | 12076 | 3.68e5 | inactive |
| CG4853 | 1 | – | – | 10351 | 4.01e5 | inactive |
| Nfs1 | 1 | – | – | 7459 | 3.48e5 | inactive |
| CG16825 | 1 | – | – | 7498 | 4.99e5 | inactive |
| CG13326 | 1 | – | – | 8768 | 4.14e5 | inactive |
| l(2)gd1 | 1 | – | – | 5164 | 2.71e5 | inactive |
| SLC5A11 | 1 | – | – | 1.42e5 | 4.06e5 | inactive |
| CG34183 | 1 | – | – | 5375 | 4.58e5 | inactive |
| CG6621 | 1 | – | – | 7562 | 3.56e5 | inactive |
| dgrn | 1 | – | – | 4644 | 3.70e5 | inactive |
| betaTub60D | 1 | – | – | 5451 | 3.47e5 | inactive |
| betaTub60D | 2 | – | – | 8577 | 5.38e5 | inactive |
| CG17028 | 1 | – | – | 8606 | 3.35e5 | inactive |
| Grip128 | 1 | – | – | 9258 | 4.09e5 | inactive |
| RpL12 | 1 | – | – | 6390 | 4.56e5 | inactive |
| Jhbp12 | 1 | – | – | 6576 | 2.93e5 | inactive |
| CG16879 (retired record) | 1 | – | – | 5647 | 4.69e5 | inactive |
| CG16879 (retired record) | 2 | – | – | 5963 | 5.12e5 | inactive |
| PolH | 1 | – | – | 8799 | 3.86e5 | inactive |
| dpr2 | 1 | – | – | 7386 | 4.32e5 | inactive |
| dpr2 | 2 | – | – | 7403 | 4.68e5 | inactive |
| CG5342 | 1 | – | – | 5379 | 3.23e5 | inactive |
| spg | 1 | – | – | 5602 | 3.19e5 | inactive |
| spg | 2 | – | – | 5367 | 3.93e5 | inactive |
| Taf6 | 1 | reporter ratio lowered past the hit cutoff | – | 7396 | 6.56e5 | inactive |
| CG10911 | 1 | – | – | 6760 | 3.62e5 | inactive |
| CG3117 | 1 | – | – | 8647 | 5.78e5 | inactive |
| chk | 1 | – | – | 8974 | 1.49e6 | inactive |
| CG31510 | 1 | – | – | 7422 | 4.73e5 | inactive |
| Ir56b | 1 | – | – | 6959 | 3.37e5 | inactive |
| Ir56b | 2 | – | reporter ratio lowered past the hit cutoff | – | – | inactive |
| Gen | 1 | – | – | 7708 | 3.78e5 | inactive |
| CG42262 (retired record) | 1 | – | – | 4384 | 3.70e5 | inactive |
| CG42262 (retired record) | 2 | – | – | 5704 | 5.58e5 | inactive |
| CG14234 | 1 | – | – | 6392 | 5.83e5 | inactive |
| CG14234 | 2 | – | – | 5786 | 5.28e5 | inactive |
| Fbxl7 | 1 | – | – | 7606 | 4.50e5 | inactive |
| CG32631 | 1 | reporter ratio lowered past the hit cutoff | – | 4447 | 4.94e5 | inactive |
| RhoL | 1 | – | – | 6151 | 5.35e5 | inactive |
| Vha16-5 | 1 | – | – | 8822 | 6.08e5 | inactive |
| X11L | 1 | – | – | 5651 | 4.61e5 | inactive |
| X11L | 2 | – | – | 5407 | 5.30e5 | inactive |
| Lsp1alpha | 1 | – | – | 5880 | 5.12e5 | inactive |
| Lsp1alpha | 2 | – | reporter ratio raised past the hit cutoff | – | – | active |
| CG7747 | 1 | – | – | 8135 | 2.93e5 | inactive |
| ND-PDSW | 1 | – | – | 34735 | 2.01e5 | inactive |
| Gbp3 | 1 | – | – | 6931 | 3.35e5 | inactive |
| CheA46a | 1 | – | – | 4531 | 4.00e5 | inactive |
| Cyp308a1 | 1 | – | – | 6544 | 5.36e5 | inactive |
| CG13545 | 1 | – | – | 5272 | 2.76e5 | inactive |
| ATPsynE | 1 | – | – | 7196 | 4.51e5 | inactive |

Part of the list above, reformatted.
Target gene | dsRNA no. | stable siRNA reporter change | miRNA reporter change | stable assay Renilla, run 1 (luminescence) | stable assay firefly, run 1 (luminescence) | call
AMPKalpha | 1 | – | – | 9703 | 4.29e5 | inactive
AMPKalpha | 2 | – | reporter ratio raised past the hit cutoff | – | – | active
rhi | 1 | – | – | 6084 | 2.60e5 | inactive
Tsp42En | 1 | – | – | 7086 | 4.59e5 | inactive
CG10973 | 1 | – | – | 8164 | 3.52e5 | inactive
CycD | 1 | – | – | 3631 | 3.42e5 | inactive
CG14424 | 1 | – | – | 5607 | 3.38e5 | inactive
CG9986 | 1 | – | – | 7898 | 5.10e5 | inactive
